Among the data in PubChem BioAssay AID256 (DTP/NCI, 2004) are survivor count and T/C values, retold here.

Structures are written as SMILES. The list does not hold the whole screen: it is rich in T/C values a quarter to a half above the control, in often repeated tests (any T/C) and in doses without a T/C. Other doses and runs of a compound stand elsewhere. T/C is the treated group as % of the vehicle group. Some doses have a count of surviving animals in place of a T/C: the source holds a T/C of zero for them, seemingly a mark for toxic or unscored doses. Some survivor counts are full or nearly so, which does not show that the dose was tolerated: the source hardly ever lists a survival T/C far under the control, and the zero likely stands for such cases as well. Survivors were counted at the toxicity check, usually on the fifth day, unless a day is given; later deaths do not show. Schedule codes are those of the source, read here as Q, the interval in days (D) or hours (H), X, the number of doses. Some entries were tested several times; the values are given in rising order. For survival time, this PubChem deposit counts one and a half times the control or more as active, and values a quarter to a half above the control carry no call in these data; other NCI protocols may use other cut-offs. Some T/C values carry the count of animals alive at the toxicity check (mostly the fifth day); where none is given, no animal had died by that day.

The test concerns CD2F1 mice, L1210 leukemia ip, survival T/C. Nature of the test: NCI In Vivo Anticancer Drug Screen. Data for tumor model L1210 Leukemia (intraperitoneal) in CD2F1 (CDF1) mice. Conditions: higher T/C = longer survival. In a few lines:
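Compound-dosed mice with transplantable tumor versus matched vehicle controls; endpoint ratio T/C reported.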

[1] abbreviates: T/C endpoint: mean survival time, dose: 100.0 mg/kg/injection, schedule: Q04DX003 (ip), vehicle: saline with Tween-80.
[2] abbreviates: T/C endpoint: mean survival time, dose: 200.0 mg/kg/injection, schedule: Q04DX003 (ip), vehicle: saline with Tween-80.
[3] abbreviates: T/C endpoint: mean survival time, dose: 400.0 mg/kg/injection, schedule: Q04DX003 (ip), vehicle: saline with Tween-80.
Where [4] appears, read: T/C endpoint: mean survival time, dose: 200.0 mg/kg/injection, schedule: Q01DX009 (ip), vehicle: saline with Tween-80.
[5] abbreviates: T/C endpoint: mean survival time, dose: 200.0 mg/kg/injection, schedule: Q04DX003 (ip), vehicle: Klucel (hydroxypropylcellulose) (HPC).
Setting [6] is: T/C endpoint: mean survival time, dose: 12.5 mg/kg/injection, schedule: Q01DX009 (ip), vehicle: saline with Tween-80.
Setting [7] is: T/C endpoint: mean survival time, dose: 300.0 mg/kg/injection, schedule: Q01DX001 (ip), vehicle: saline.

Consider `COc1ccc2cc3[n+](cc2c1OC)CCc1cc2c(cc1-3)OCO2`, for which the survivor count is, setting by setting: (T/C endpoint: mean survival time, dose: 20.0 mg/kg/injection, schedule: Q01DX009 (ip), vehicle: saline with Tween-80) 1 of 6; under setting [1], 0 of 6; under setting [2], 0 of 6; under setting [3], 0 of 6.

With `CN(C)c1nc(N)nc(-c2cc[n+]([O-])cc2)n1`, under “T/C endpoint: mean survival time, dose: 400.0 mg/kg/injection, schedule: Q04DX002 (ip), vehicle: saline”, the survivor count is listed as 0 of 3.

With `CN=C1N[N+]2=CCCCC2S1` (stereo not given), the survivor count (T/C endpoint: mean survival time, dose: 100.0 mg/kg/injection, schedule: Q04DX003 (ip), vehicle: saline) is on record as 1 of 3.

Take `NC(=O)c1c(N)sc2c1CCCC2`: the survivor count runs as follows: under setting [1], 1 of 6; under setting [2], 0 of 6; under setting [3], 0 of 6.

As for `NCc1cc(O)c(O)c(O)c1`, the T/C by setting is: (T/C endpoint: median survival time, dose: 37.5 mg/kg/injection, schedule: Q01DX005 (ip), vehicle: saline) 128 % of control; (T/C endpoint: median survival time, dose: 108.0 mg/kg/injection, schedule: Q01DX005 (ip), vehicle: saline) 146 % of control; (T/C endpoint: median survival time, dose: 150.0 mg/kg/injection, schedule: Q01DX005 (ip), vehicle: saline) 130 % of control; (T/C endpoint: median survival time, dose: 180.0 mg/kg/injection, schedule: Q01DX005 (ip), vehicle: saline) 146 % of control; (T/C endpoint: median survival time, dose: 300.0 mg/kg/injection, schedule: Q01DX005 (ip), vehicle: saline) 132 % of control; (T/C endpoint: median survival time, dose: 500.0 mg/kg/injection, schedule: Q01DX005 (ip), vehicle: saline) 143 % of control. In addition, the T/C (T/C endpoint: median survival time, dose: 600.0 mg/kg/injection, schedule: Q01DX005 (ip), vehicle: saline) was 137 and 145 % of control [5 of 6 alive]; the T/C (T/C endpoint: median survival time, dose: 833.33 mg/kg/injection, schedule: Q01DX005 (ip), vehicle: saline) is 142 % of control [5 of 6 alive].

For `S=P(Cc1ccccc1)(c1ccccc1)c1ccccc1`, the survivor count under setting [4] is 6 of 6 and the survivor count under setting [3] is 6 of 6.

Take `C=CCc1cn(C2CC(O)C(CO)O2)c(=O)[nH]c1=O` (stereo not given): the survivor count (T/C endpoint: mean survival time, dose: 264.0 mg/kg/injection, schedule: Q01DX009 (ip), vehicle: saline) is listed as 0 of 6.

Turning to `CCn1c(=O)c2[nH]c(Cl)nc2n(CC)c1=O`, the survivor count under setting [5] was 5 of 6.

For the compound `O=NN(CCCl)C(=O)NCCc1cccc[n+]1[O-]`, the T/C (T/C endpoint: mean survival time, dose: 12.5 mg/kg/injection, schedule: Q01DX001 (ip), vehicle: water) is 142 % of control.

As for `CN(C)CCCC#N`, under setting [4], the survivor count was 2 of 6.

As to `CCCCC(=O)/C=C/Sc1n[nH]c(=O)[nH]c1=O`, the survivor count (T/C endpoint: mean survival time, dose: 100.0 mg/kg/injection, schedule: Q01DX005 (ip), vehicle: distilled water + Tween-80) was 0 of 6 and the survivor count (T/C endpoint: mean survival time, dose: 200.0 mg/kg/injection, schedule: Q01DX005 (ip), vehicle: distilled water + Tween-80) was 0 of 6.

On to `Nc1cccc(NC=O)c1`, for which the survivor count under setting [5] was 0 of 6 and the survivor count (T/C endpoint: mean survival time, dose: 400.0 mg/kg/injection, schedule: Q04DX003 (ip), vehicle: Klucel (hydroxypropylcellulose) (HPC)) is reported as 0 of 6.

As for `CCOC(=O)CCCN(C)C(C)(C)C#N`, under setting [4], the survivor count is 3 of 6.

With `CCC(C)OP(=S)(S)OC(C)CC.[Zn+2]` (stereo not given), the survivor count was 3 of 3 (T/C endpoint: mean survival time, dose: 1.5 mg/kg/injection, schedule: Q01DX009 (ip), vehicle: saline with Tween-80); 3 of 3 and 6 of 6 (T/C endpoint: mean survival time, dose: 6.25 mg/kg/injection, schedule: Q01DX009 (ip), vehicle: saline with Tween-80); 6 of 6 under setting [6]; 5 of 6 and 3 of 3 (T/C endpoint: mean survival time, dose: 25.0 mg/kg/injection, schedule: Q01DX009 (ip), vehicle: saline with Tween-80); 0 of 6 (T/C endpoint: mean survival time, dose: 50.0 mg/kg/injection, schedule: Q01DX001 (ip), vehicle: saline with Tween-80); 0 of 3 and 1 of 6 (T/C endpoint: mean survival time, dose: 50.0 mg/kg/injection, schedule: Q01DX009 (ip), vehicle: saline with Tween-80). In addition, the survivor count by setting is: (T/C endpoint: mean survival time, dose: 50.0 mg/kg/injection, schedule: Q04DX003 (ip), vehicle: saline with Tween-80) 0 of 6; (T/C endpoint: mean survival time, dose: 100.0 mg/kg/injection, schedule: Q01DX001 (ip), vehicle: saline with Tween-80) 0 of 6; (T/C endpoint: mean survival time, dose: 100.0 mg/kg/injection, schedule: Q04DX002 (ip), vehicle: saline with Tween-80) 0 of 6 and 1 of 3; (T/C endpoint: mean survival time, dose: 200.0 mg/kg/injection, schedule: Q04DX002 (ip), vehicle: saline with Tween-80) 0 of 6; (T/C endpoint: mean survival time, dose: 400.0 mg/kg/injection, schedule: Q04DX002 (ip), vehicle: saline with Tween-80) 0 of 6. The T/C under setting [6] was 88 [5 of 6 alive], 91, 92 % of control.

As for `CN1NC=Nc2c1[nH]cnc2=S`, the survivor count (T/C endpoint: mean survival time, dose: 300.0 mg/kg/injection, schedule: Q01DX001 (ip), vehicle: other) is 0 of 6.

For `Cc1nc(N)sc1S(=O)(=O)F`, the survivor count (T/C endpoint: mean survival time, dose: 400.0 mg/kg/injection, schedule: Q01DX009 (ip), vehicle: saline with Tween-80) is given as 1 of 6.

As to `O=C1CCCCC1CNCc1ccccc1` (stereo not given), the survivor count under setting [7] was 0 of 6.

Regarding `CCCc1ccc(OC)cc1`, the survivor count under setting [4] is on record as 3 of 6 and the survivor count under setting [3] was 4 of 6.

Regarding `O=C(NO)c1ccc(O)c(O)c1O`, where the note is “T/C endpoint: mean survival time, dose: 200.0 mg/kg/injection, schedule: Q01DX009 (ip), vehicle: distilled water + Tween-80”, the survivor count is given as 3 of 6.

Regarding `Nc1ccn(C2OC(CO)C(OP(=O)(O)O)C2O)c(=O)n1` (stereo not given), the T/C was 136 % of control (T/C endpoint: mean survival time, dose: 50.0 mg/kg/injection, schedule: Q01DX009 (oral), vehicle: saline) and 136 % of control (T/C endpoint: mean survival time, dose: 100.0 mg/kg/injection, schedule: Q01DX009 (oral), vehicle: saline).

In the case of `O=C(N/N=C/c1ccc2c(c1)CCC2)c1ccccc1[N+](=O)[O-]`, the survivor count under setting [1] is 6 of 6.

For `CC(F)(F)C(F)(F)C(=O)CC(=O)C(F)(F)F.CC(F)(F)C(F)(F)C(=O)CC(=O)C(F)(F)F.[Cu]`, the survivor count was 4 of 6 under setting [1], 0 of 6 under setting [2] and 0 of 6 under setting [3].

On to `OC1CCCC[CH]1[Hg][Cl]` (stereo not given), for which the survivor count is, setting by setting: (T/C endpoint: mean survival time, dose: 75.0 mg/kg/injection, schedule: Q01DX001 (ip), vehicle: saline) 0 of 6; (T/C endpoint: mean survival time, dose: 150.0 mg/kg/injection, schedule: Q01DX001 (ip), vehicle: saline) 0 of 6; under setting [7], 0 of 6.

In the case of `COc1ccc2ccccc2c1`, for the setting “T/C endpoint: mean survival time, dose: 400.0 mg/kg/injection, schedule: Q04DX003 (ip), vehicle: other”, the survivor count was 6 of 6.

Turning to `c1ccc2c(c1)[nH]c1c2cc[n+]2cc3c(cc12)CCCC3`, the survivor count (T/C endpoint: mean survival time, dose: 80.0 mg/kg/injection, schedule: Q01DX001 (ip), vehicle: saline) is 0 of 6.

As for `COc1cc(Cc2cnc(NC(C)=O)nc2NC(C)=O)cc(OC)c1OC`, the survivor count under setting [1] is on record as 6 of 6 and the survivor count under setting [2] is 6 of 6.

With `CCOC1=NC(C)(C)CC(C)O1` (stereo not given), the survivor count (T/C endpoint: mean survival time, dose: 200.0 mg/kg/injection, schedule: Q04DX003 (ip), vehicle: saline) is 1 of 6 and the survivor count (T/C endpoint: mean survival time, dose: 400.0 mg/kg/injection, schedule: Q04DX003 (ip), vehicle: saline) is listed as 0 of 6.

`CC1=NN(c2cccc(S(=O)(=O)O)c2)C(=O)C1`: the survivor count runs as follows: (T/C endpoint: mean survival time, dose: 200.0 mg/kg/injection, schedule: Q01DX009 (ip), vehicle: saline sonified) 5 of 6; (T/C endpoint: mean survival time, dose: 400.0 mg/kg/injection, schedule: Q01DX009 (ip), vehicle: saline sonified) 3 of 6.

For the compound `CNc1nc(N(C)C)nc(N(C)C)n1`, the survivor count was 6 of 6 (T/C endpoint: mean survival time, dose: 200.0 mg/kg/injection, schedule: Q01DX009 (ip), vehicle: saline) and 6 of 6 (T/C endpoint: mean survival time, dose: 200.0 mg/kg/injection, schedule: Q01DX009 (ip), vehicle: water).
